Results deposited as PubChem BioAssay AID686943 (Drosophila RNAi Screening Center, 2013).

- Purpose: 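Search across the genome for regulators of signalling from receptor tyrosine kinase to ERK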 (primary screen)
- Cells: Drosophila S2R+ haemocyte-like cells expressing YFP-tagged ERK (Rolled)
- Knock-down reagent: long dsRNA against Drosophila genes
- Conditions: insulin stimulation versus unstimulated cells; dose and duration not given
- Detection: 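Per-plate z-scores of phospho-ERK immunostaining normalised to YFP-tagged ERK, measured with and without insulin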
- Reading the numbers: replicate 1, z-score of dpERK with insulin and replicate 2, z-score of dpERK with insulin: higher = more active ERK per ERK-YFP after insulin; replicate 1, z-score of dpERK under basal conditions: higher = more basal active ERK per ERK-YFP; replicate 1, z-score of ERK-YFP with insulin: higher = more YFP-tagged ERK signal
The screen tested about 23,000 reagents; this is a random part of those that have a named target and a result. 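Extra replicates exist only for a retested subset of genes; insulin dose and duration not given; both raised and lowered dpERK matter.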 A plus sign joins genes that one reagent is predicted to hit. Not stated in the record: the amount of reagent, the time to read-out.

no.	Gene	DRSC id	replicate 1, z-score of dpERK with insulin	replicate 2, z-score of dpERK with insulin	replicate 1, z-score of dpERK under basal conditions	replicate 1, z-score of ERK-YFP with insulin
1	CG4743	DRSC15636	-0.36	-0.11	0.11	0.97
2	CG6277	DRSC16008	0.01	-1.53	-1.21	-0.32
3	CG34428	DRSC10119	-0.64	0.01	0.67	0.39
4	CG34284	DRSC14773	-0.94	0.01	-0.45	-0.52
5	Yif1 (Yip1-interacting factor 1)	DRSC15817	0.19	0.18	0.98	0.23
6	fusl (fuseless)	DRSC02351	0.31	-0.61	-0.18	-0.07
7	CG1631	DRSC20535	0.61	0.68	0.94	0.69
8	SRPK (SR Protein Kinase)	DRSC07090	-0.3	0.98	1.18	-1.14
9	Gr22c (Gustatory receptor 22c)	DRSC22081	0.15	-0.36	0.8	-0.29
10	Glys (Glycogen synthase)	DRSC16130	-0.3	0.16	-0.3	0.27
11	CG17570	DRSC01770	0.93	0.16	0	0.16
12	CG17570	DRSC03754	0.65	0.54	-0.33	-0.42
13	CR18275 + CG13373	DRSC17900	-0.32	0	-0.78	-0.25
14	Fas1 (Fasciclin 1)	DRSC16669	-1.31	-1.68	0.01	0.88
15	Spn85F (Serpin 85F)	DRSC14545	-0.08	0.37	-0.3	0
16	CG13074	DRSC09957	-0.66	0.07	0.21	0.71
17	CG13527	DRSC04169	-0.09	0.55	-0.06	0.44
18	CG3009	DRSC18263	-0.54	-0.64	0.65	0.62
19	CG4558	DRSC18369	-0.37	-0.75	0.25	0.35
20	wa-cup (walker cup)	DRSC12511	0.07	-0.91	0.51	0.26
21	chic (chickadee)	DRSC03507	-0.5	-0.35	-0.46	-0.17
22	sisA	DRSC20374	-0.03	0.41	1.11	-0.06
23	wit (wishful thinking)	DRSC08741	-0.12	-0.13	-0.31	-0.03
24	CG8673	DRSC03105	0.11	0.08	1.12	0.74
25	Pat1 (Protein interacting with APP tail-1)	DRSC17750	0.14	0.51	0.92	0.52
26	Cyp6a2 (Cytochrome P450 6a2)	DRSC05014	-0.94	-0.19	-1.09	1.6
27	ex (expanded)	DRSC00817	0.36	0.41	0.09	0.71
28	Dus1 (Dihydrouridine synthase 1)	DRSC00623	-0.05	-0.66	0.14	-0.34
29	CG8087	DRSC16375	0.68	0.4	-0.5	0.33
30	Kua	DRSC02100	0.13	0	-0.19	-0.04
31	CG14926	DRSC02409	1.01	0.14	-0.38	-1.21
32	CG16786	DRSC04281	-0.17	0.7	0.62	0.18
33	Klp68D (Kinesin-like protein at 68D)	DRSC11206	-0.2	0.06	0	0.2
34	CG4594	DRSC02762	-0.4	0.02	0.11	1.27
35	CG34408	DRSC17733	0.8	0.52	0.53	0.18
36	CG34408	DRSC21926	-0.99	-1.13	-1.14	0.33
37	CG32302	DRSC08340	0.36	0.19	0.41	-0.09
38	CG16935	DRSC06638	1.12	-0.21	0.83	-0.74
39	CG7488	DRSC16250	1.1	0.78	0.94	-0.37
40	CG14143	DRSC10146	0.35	0.04	0.66	0.21
41	Ifrd1 (Interferon-related developmental regulator 1)	DRSC00415	-0.47	-0.76	0.25	0.35
42	Ifrd1 (Interferon-related developmental regulator 1)	DRSC00566	-0.5	-0.8	-0.21	-0.02
43	Reps (RALBP1 associated Eps domain containing)	DRSC02940	0.44	0.14	1.61	-1.24
44	gudu	DRSC02820	0.99	-0.04	1.76	1.26
45	CG31528	DRSC12003	-0.51	0.04	0.51	0.18
46	CG10341	DRSC02040	-0.51	-0.18	-0.5	0.47
47	toy (twin of eyeless)	DRSC17222	-2.18	-1.78	-0.06	1.64
48	PPP4R2r (Protein phosphatase 4 regulatory subunit 2-related protein)	DRSC18695	0.2	-0.66	2.36	0.13
49	PPP4R2r (Protein phosphatase 4 regulatory subunit 2-related protein)	DRSC21503	-0.41	0.48	-0.48	0.75
50	ppk20 (pickpocket 20)	DRSC16260	0.27	-0.15	0.32	-0.37
51	CG43092	DRSC13572	0.82	-0.34	0.32	0.16
52	nmdyn-D7	DRSC17016	-1.28	-0.27	-0.11	0.77
53	Dad	DRSC16642	0.02	-0.97	-1.34	1.24
54	CG11883	DRSC06094	0.35	0.33	-0.45	-0.59
55	Spec2 (retired record)	DRSC12258	0.04	0.3	0.2	-0.25
56	Spec2 (retired record)	DRSC22886	-1.43	-1.46	0.01	-0.47
57	trr (trithorax-related)	DRSC18845	0.18	-3.18	-1.66	1.08
58	Blm + CG14721	DRSC14943	-0.22	-0.56	-0.74	0.28
59	CG34235 + CG30058 + CG34312	DRSC22142	-3.04	1.09	0.03	-0.07
60	MFS14 (Major Facilitator Superfamily Transporter 14)	DRSC06524	0.99	0.33	-0.28	-0.53
61	CG14408	DRSC19595	-0.13	0.98	0.19	0.58
62	CG6843	DRSC10725	0.26	-0.1	0.16	0.54
63	RpL8 (Ribosomal protein L8)	DRSC08532	0.13	-1.72	-1.07	-4.45
64	RpL8 (Ribosomal protein L8)	DRSC08695	-1.52	-0.2	-1.17	-3.2
65	Hip14 (Huntingtin-interacting protein 14)	DRSC10570	1.37	0.57	0.46	0.12
66	Cpr47Eb (Cuticular protein 47Eb)	DRSC06345	0.84	-0.07	0.77	0.25
67	SNF4Agamma (SNF4/AMP-activated protein kinase gamma subunit)	DRSC13461	-0.03	0.35	-0.33	-0.73
68	SNF4Agamma (SNF4/AMP-activated protein kinase gamma subunit)	DRSC13463	-0.13	0.72	0	-0.04
69	SNF4Agamma (SNF4/AMP-activated protein kinase gamma subunit)	DRSC15879	0.82	-0.83	0.53	-0.03
70	SNF4Agamma (SNF4/AMP-activated protein kinase gamma subunit)	DRSC16847	-0.63	-1.41	3.29	-0.1
71	Dnah3 (dynein, axonemal, heavy chain 3)	DRSC08130	0.29	0.26	0.67	0.11
72	Dnah3 (dynein, axonemal, heavy chain 3)	DRSC08513	-0.3	0.04	-0.28	0.17
73	Cp38 (Chorion protein 38)	DRSC18453	1.17	0.57	-0.01	0.5

5 entries already listed, arranged by “replicate 1, z-score of dpERK with insulin”, lowest first:
Gene	DRSC id	replicate 1, z-score of dpERK with insulin	replicate 2, z-score of dpERK with insulin	replicate 1, z-score of dpERK under basal conditions	replicate 1, z-score of ERK-YFP with insulin
CG13074	DRSC09957	-0.66	0.07	0.21	0.71
CG3009	DRSC18263	-0.54	-0.64	0.65	0.62
CG4558	DRSC18369	-0.37	-0.75	0.25	0.35
CG13527	DRSC04169	-0.09	0.55	-0.06	0.44
Spn85F (Serpin 85F)	DRSC14545	-0.08	0.37	-0.3	0
